Laboratory results published in publication PMC7819943, “Rice protein-binding microarrays: a tool to detect cis-acting elements near promoter regions in rice”.
The other results are listed elsewhere or left out.

The chains behind the UniProt entries cited, without tags or fusion partners.
UniProt Q0JBA9, entry or part of it: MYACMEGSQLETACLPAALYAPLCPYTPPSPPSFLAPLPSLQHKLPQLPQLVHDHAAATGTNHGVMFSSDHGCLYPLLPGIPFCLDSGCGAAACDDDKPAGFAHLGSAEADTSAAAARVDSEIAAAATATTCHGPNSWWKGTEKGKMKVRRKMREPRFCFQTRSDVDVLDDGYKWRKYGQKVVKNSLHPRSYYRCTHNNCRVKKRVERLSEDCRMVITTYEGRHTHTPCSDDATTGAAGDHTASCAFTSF

These sequences were tested against OsWRKY34 (Oryza sativa, UniProt Q0JBA9 1-250) (assay: protein-binding microarray (RPBM); PBS, 2% BSA, 51.3 ng/ul salmon testes DNA, 50 uM zinc acetate, 200 nM TF, 25 C, 1 h; high values mean tight binding). Conditions: protein: recombinant; tags: N-terminal polyhistidine and DsRed monomer fusion (pET32a); label: CyDye5-dUTP incorporated in the synthesized complementary strand; 3' TTTTT single-stranded linker to array surface; dsDNA, one strand shown.
Procedure, shortened: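 An Axon 4000B scanner gave the binding signal as per-feature fluorescence intensity in arbitrary units. This followed washing of a custom Agilent array that had been incubated for 1 h at 25 °C with 200 nM protein in PBS, 2% BSA, salmon testes DNA and 50 µM zinc acetate. The proteins were transcription factors fused at the N-terminus to polyhistidine and DsRed, expressed in E. coli BL21-CodonPlus and purified on Ni–NTA.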

| Sequence | binding signal |
| --- | --- |
| TGTACGTGACCAGTAACGCGTTGACCTTTTCTTTGTTGAACGGAGTCACCTAGTGCAG | 17000 fluorescence intensity (a.u.) |
| ACTTGGCCCCACCTGGCAGCCTCTCCAGCTCGCCCTTCTTCGGAGTCACCTAGTGCAG | 9000 fluorescence intensity (a.u.) |
| TTCTGCTACCTATTCTTTTCGCAGTGCTGCACATTAAATTCGGAGTCACCTAGTGCAG | 9370 fluorescence intensity (a.u.) |
| TCTCAGTGCCGGTGTGGGATCGTGGTTGTGTGTGTGATTGCGGAGTCACCTAGTGCAG | 9020 fluorescence intensity (a.u.) |
| GTTTATTTTTCAGTCTTTGCTTTTAGATCGTTAAAAATATCGGAGTCACCTAGTGCAG | 8970 fluorescence intensity (a.u.) |
| TTAGACCGGTTCATGTAACTGTAACTACGCTGACTTATTGCGGAGTCACCTAGTGCAG | 9250 fluorescence intensity (a.u.) |
| AGCCAAGTGCTCACCTGTTCGCATGCCCATTGCTGCTGCGCGGAGTCACCTAGTGCAG | 11300 fluorescence intensity (a.u.) |
| AATGCTTTGAGACCACTCCCTCTCTCTTTTTCTCTCTCACCGGAGTCACCTAGTGCAG | 8110 fluorescence intensity (a.u.) |
| CTATTGACCTTGCTCTCAAGCGCCACATGCTTCTGCTCACCGGAGTCACCTAGTGCAG | 8750 fluorescence intensity (a.u.) |
| CACCTAGGAGTAGTAGTTTGGGTTTGGGTTCCTCTCTCGTCGGAGTCACCTAGTGCAG | 8520 fluorescence intensity (a.u.) |
| CCCAATCTCTCCCATTTCCATTTCCATTTCCATTTCCTCCCGGAGTCACCTAGTGCAG | 11100 fluorescence intensity (a.u.) |
| TCTCGCGCCGCCCTCGCTCTTCGCCGTTTCGCCGCTGGCCCGGAGTCACCTAGTGCAG | 8950 fluorescence intensity (a.u.) |
| TTCTGCGCACTCTGCACCGCTGATTTTGTTTGTTGATTCTCGGAGTCACCTAGTGCAG | 9760 fluorescence intensity (a.u.) |
| CCTGAACTCTCATTTTGGGGATGCTGGGAGAAGTTTGGGTCGGAGTCACCTAGTGCAG | 10600 fluorescence intensity (a.u.) |
| GGAGGCTTGTGCTGCTTCGTCTTTTCCCGCCGCCGCGCACCGGAGTCACCTAGTGCAG | 9680 fluorescence intensity (a.u.) |
| TTCATCCCCTAACCCTTTCTTTGTTCATCTTGTTCTTCCTCGGAGTCACCTAGTGCAG | 9970 fluorescence intensity (a.u.) |
| GCACACCCTAATTTGCTTTACCTAGGCCGTGTTTAGTTCCCGGAGTCACCTAGTGCAG | 9110 fluorescence intensity (a.u.) |
| CATTTCGTTCACACAGTAGGTTCTTTGAGACTAGATATCTCGGAGTCACCTAGTGCAG | 8170 fluorescence intensity (a.u.) |
| AGCGCACAAACCCACACACAGATTATTAACATCATGCTGTCGGAGTCACCTAGTGCAG | 10200 fluorescence intensity (a.u.) |
| GACACTAGGACAGTACGTAGCTACCTCTCCACTGCTCTGCCGGAGTCACCTAGTGCAG | 8730 fluorescence intensity (a.u.) |
| TCTCTTTCTCTCTCTCACTTTAGTGCTAGAATGGCAAAACCGGAGTCACCTAGTGCAG | 11600 fluorescence intensity (a.u.) |

| Sequence | binding signal |
| --- | --- |
| AGGAAATGTCTCATCAAATACTAGATTGGTTTTTTTTTACCGGAGTCACCTAGTGCAG | 8960 fluorescence intensity (a.u.) |
| GTTGATTTGTGTTTTGACTTTTGAAAAGACTACTGTTACTCGGAGTCACCTAGTGCAG | 8210 fluorescence intensity (a.u.) |
| ATCTCGATCCCCGCCGCGCCGCCGTTCCTCCACGCCGCCGCGGAGTCACCTAGTGCAG | 8860 fluorescence intensity (a.u.) |
| TGTGAGTGAGTTTTGTTTCGTTTTCCGCGCGCACGTTTTCCGGAGTCACCTAGTGCAG | 11200 fluorescence intensity (a.u.) |
| TTATATCCTGTTTTGTGGTTTAAGGATGTCATTTGACCAACGGAGTCACCTAGTGCAG | 8420 fluorescence intensity (a.u.) |
| TGAGGGAGGGTTTTTCTTGTAAATATTATACGTACGTTTACGGAGTCACCTAGTGCAG | 13600 fluorescence intensity (a.u.) |
| ACACACGCCAGCTCTCACGTACTTTGCGTGTTCACCCCAGCGGAGTCACCTAGTGCAG | 9270 fluorescence intensity (a.u.) |
| AGGTTTCAGACGTTATTTTGCCTTTGTACACTCTTACTGCCGGAGTCACCTAGTGCAG | 8192 fluorescence intensity (a.u.) |
| TCTGTTCCAAAGGAGGTCTTGTTGTTTGGCTGTGTTTCTTCGGAGTCACCTAGTGCAG | 9770 fluorescence intensity (a.u.) |
| CAATCATTATTTACTTTATTTTCTCCCAATACAATTTATTCGGAGTCACCTAGTGCAG | 8680 fluorescence intensity (a.u.) |
| CCCTTTCCTCAACGCATGAATTCCCCTTGTTCACGGTGAACGGAGTCACCTAGTGCAG | 8400 fluorescence intensity (a.u.) |
| CCGGGTCACACATCCCCTCATACTCGGGCCTTGTTTAGTTCGGAGTCACCTAGTGCAG | 8740 fluorescence intensity (a.u.) |
| ATCATTTAGTTGACATACTCACTCTGTTTCAGGCTACAAGCGGAGTCACCTAGTGCAG | 8100 fluorescence intensity (a.u.) |
| ATCCGTGTATTATAGCGTTTCGTAGTAGTATTTTTATGTCCGGAGTCACCTAGTGCAG | 9280 fluorescence intensity (a.u.) |
| ATCTCTCTATCTCCCTCTGATGTTCTGTCTCTCTCTCTCTCGGAGTCACCTAGTGCAG | 8860 fluorescence intensity (a.u.) |
| GACCTCGCTTCCCCGCCGGCCGCCATGAAATTGGAGCTTCCGGAGTCACCTAGTGCAG | 9870 fluorescence intensity (a.u.) |
| CTCGCACCTCCTACCTCTCCAGTGTGAGTCTCCACCTACCCGGAGTCACCTAGTGCAG | 8950 fluorescence intensity (a.u.) |
| ACTGAGATCCCTTGCAGTACTGCAATAGTACCACACAAATCGGAGTCACCTAGTGCAG | 8110 fluorescence intensity (a.u.) |
| TCACTCATTCACTCTCCACGCTTTCACTTCACTCGCCCACCGGAGTCACCTAGTGCAG | 9040 fluorescence intensity (a.u.) |
| TCTCCTACTTCTTGCCTGCCTCGCACCTCACTCTTCTTCCCGGAGTCACCTAGTGCAG | 10400 fluorescence intensity (a.u.) |
| CACCAGCATCCTCGCACGGTCGCGACCCCTCCCGCACCTCCGGAGTCACCTAGTGCAG | 8200 fluorescence intensity (a.u.) |

An excerpt taken from the entries so far, for reference:

| Sequence | binding signal |
| --- | --- |
| ATCTCTCTATCTCCCTCTGATGTTCTGTCTCTCTCTCTCTCGGAGTCACCTAGTGCAG | 8860 fluorescence intensity (a.u.) |
| GACCTCGCTTCCCCGCCGGCCGCCATGAAATTGGAGCTTCCGGAGTCACCTAGTGCAG | 9870 fluorescence intensity (a.u.) |
| CTCGCACCTCCTACCTCTCCAGTGTGAGTCTCCACCTACCCGGAGTCACCTAGTGCAG | 8950 fluorescence intensity (a.u.) |
